Experimental findings from publication PMC8862343 are described below.

Sequences of proteins named here, by UniProt entry; tags and fusion partners are left off. Residues count along the entry.
UniProt P17301, residues 30-1181: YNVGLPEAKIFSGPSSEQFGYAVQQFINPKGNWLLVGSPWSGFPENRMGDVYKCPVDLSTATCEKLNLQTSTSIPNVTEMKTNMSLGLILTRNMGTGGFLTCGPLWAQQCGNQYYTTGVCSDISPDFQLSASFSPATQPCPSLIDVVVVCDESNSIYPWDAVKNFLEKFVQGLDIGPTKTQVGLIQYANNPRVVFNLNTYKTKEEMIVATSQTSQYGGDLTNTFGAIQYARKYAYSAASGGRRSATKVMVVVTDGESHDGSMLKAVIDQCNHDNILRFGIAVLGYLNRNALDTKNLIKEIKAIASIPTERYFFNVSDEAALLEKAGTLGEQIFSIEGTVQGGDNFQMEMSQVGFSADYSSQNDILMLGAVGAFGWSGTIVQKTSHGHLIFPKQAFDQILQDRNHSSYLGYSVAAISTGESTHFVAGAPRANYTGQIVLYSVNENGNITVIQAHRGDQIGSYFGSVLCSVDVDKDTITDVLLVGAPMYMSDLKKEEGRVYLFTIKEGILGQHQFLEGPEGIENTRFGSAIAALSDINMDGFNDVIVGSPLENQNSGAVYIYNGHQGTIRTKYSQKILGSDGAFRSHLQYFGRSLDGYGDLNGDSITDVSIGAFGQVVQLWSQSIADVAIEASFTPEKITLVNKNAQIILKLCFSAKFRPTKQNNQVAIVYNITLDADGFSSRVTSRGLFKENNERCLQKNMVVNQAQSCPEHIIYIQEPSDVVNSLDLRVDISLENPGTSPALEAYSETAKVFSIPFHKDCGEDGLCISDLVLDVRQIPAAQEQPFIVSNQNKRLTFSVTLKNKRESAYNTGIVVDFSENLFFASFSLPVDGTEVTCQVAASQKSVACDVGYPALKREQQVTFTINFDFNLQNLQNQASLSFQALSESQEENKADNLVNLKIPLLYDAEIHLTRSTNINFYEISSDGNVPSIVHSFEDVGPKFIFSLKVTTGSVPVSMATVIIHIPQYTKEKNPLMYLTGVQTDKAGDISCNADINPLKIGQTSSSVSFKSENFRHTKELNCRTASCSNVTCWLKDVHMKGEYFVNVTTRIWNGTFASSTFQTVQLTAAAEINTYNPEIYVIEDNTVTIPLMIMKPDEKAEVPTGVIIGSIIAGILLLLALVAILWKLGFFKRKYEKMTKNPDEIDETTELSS

No constants are given. Whether binding was seen depends on the method and setting. Binding seen in cells or lysates may run through a third protein. Some results given as binding are weak or reduced against the parent protein; the word gives no strength.

For this test, the target named is Integrin alpha 2 (human (endogenous in PANC-1 and AsPC-1)) (UniProt P17301). Nature of the test: co-IP; RIPA lysates of PANC-1 and AsPC-1 cells, incubated overnight at 4 °C with agarose beads having antibodies; Western blot.

B1: Transcription factor CP2 (protein, UniProt Q12800 1-502)
chain: MAWALKLPLADEVIESGLVQDFDASLSGIGQELGAGAYSMSDVLALPIFKQEESSLPPDNENKILPFQYVLCAATSPAVKLHDETLTYLNQGQSYEIRMLDNRKLGELPEINGKLVKSIFRVVFHDRRLQYTEHQQLEGWRWNRPGDRILDIDIPMSVGIIDPRANPTQLNTVEFLWDPAKRTSVFIQVHCISTEFTMRKHGGEKGVPFRVQIDTFKENENGEYTEHLHSASCQIKVFKPKGADRKQKTDREKMEKRTPHEKEKYQPSYETTILTECSPWPEITYVNNSPSPGFNSSHSSFSLGEGNGSPNHQPEPPPPVTDNLLPTTTPQEAQQWLHRNRFSTFTRLFTNFSGADLLKLTRDDVIQICGPADGIRLFNALKGRMVRPRLTIYVCQESLQLREQQQQQQQQQQKHEDGDSNGTFFVYHAIYLEELTAVELTEKIAQLFSISPCQISQIYKQGPTGIHVLISDEMIQNFQEEACFILDTMKAETNDSYHIILK
As to B1, the binding result was “binds”.
